In article PMC6169973:
Results are given in words; binding and its absence hold for the method and conditions named.

Chains of the proteins cited; added tags and fusions are not shown. Lines headed by an entry give the natural chain unless they say otherwise; changes in a name come on top. A line that says so, or that is headed by a name, gives the form on record, which may keep a tag or linker. Residues count along the entry.
UniProt Q9HB75, residues 777-883: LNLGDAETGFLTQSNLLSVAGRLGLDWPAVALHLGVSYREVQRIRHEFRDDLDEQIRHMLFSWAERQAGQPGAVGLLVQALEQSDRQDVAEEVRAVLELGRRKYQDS
UniProt P78560: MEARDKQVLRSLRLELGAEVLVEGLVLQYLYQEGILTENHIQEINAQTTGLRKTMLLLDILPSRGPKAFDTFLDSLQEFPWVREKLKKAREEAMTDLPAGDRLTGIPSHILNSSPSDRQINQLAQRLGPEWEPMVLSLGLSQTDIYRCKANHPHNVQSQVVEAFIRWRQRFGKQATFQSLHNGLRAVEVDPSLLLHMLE
RAIDD DD R170H (TLIS variant) (P78560, form named): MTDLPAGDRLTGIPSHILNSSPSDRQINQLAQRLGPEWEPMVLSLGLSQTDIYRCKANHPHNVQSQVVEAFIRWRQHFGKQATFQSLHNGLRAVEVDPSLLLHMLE

Legend:
PIDD DD (777-883) [1] = molecular target: PIDD DD (777-883) (UniProt Q9HB75); test: native gel or EMSA; native PAGE on PhastSystem, 8-25% gradient gels; separately purified proteins pre-incubated 30 min at room temperature; Coomassie; both purified
PIDD DD (777-883) [2] = molecular target: PIDD DD (777-883) (UniProt Q9HB75); test: SEC; RAIDD (full length, DD or mutant) mixed with a molar excess of PIDD DD, 30 min at room temperature; Superdex 200 HR 10/30 in 20 mM Tris-HCl pH 8.0, 150 mM NaCl; fractions on SDS-PAGE, Coomassie; both purified

| binding (PIDD DD (777-883) [1]) | binding (PIDD DD (777-883) [2]) | Substance |
| --- | --- | --- |
| no binding | no binding | RAIDD DD R170H (TLIS variant) (from UniProt P78560 94-199) (domain or fragment) |
| no binding | – | full-length RAIDD F164C (TLIS variant) (from UniProt P78560 1-199) |
| no binding | no binding | full-length RAIDD R170C (TLIS variant) (from UniProt P78560 1-199) |
| no binding | no binding | full-length RAIDD R170H (TLIS variant) (from UniProt P78560 1-199) |
